Reference: PMC6072441
No constants are given. Whether binding was seen depends on the method and setting. Binding seen in cells or lysates may run through a third protein. Some results given as binding are weak or reduced against the parent protein; the word gives no strength. For part of these data: Tags and fused reporters may be left off the sequences shown.

The chains behind the UniProt entries cited, without tags or fusion partners.
UniProt O09106: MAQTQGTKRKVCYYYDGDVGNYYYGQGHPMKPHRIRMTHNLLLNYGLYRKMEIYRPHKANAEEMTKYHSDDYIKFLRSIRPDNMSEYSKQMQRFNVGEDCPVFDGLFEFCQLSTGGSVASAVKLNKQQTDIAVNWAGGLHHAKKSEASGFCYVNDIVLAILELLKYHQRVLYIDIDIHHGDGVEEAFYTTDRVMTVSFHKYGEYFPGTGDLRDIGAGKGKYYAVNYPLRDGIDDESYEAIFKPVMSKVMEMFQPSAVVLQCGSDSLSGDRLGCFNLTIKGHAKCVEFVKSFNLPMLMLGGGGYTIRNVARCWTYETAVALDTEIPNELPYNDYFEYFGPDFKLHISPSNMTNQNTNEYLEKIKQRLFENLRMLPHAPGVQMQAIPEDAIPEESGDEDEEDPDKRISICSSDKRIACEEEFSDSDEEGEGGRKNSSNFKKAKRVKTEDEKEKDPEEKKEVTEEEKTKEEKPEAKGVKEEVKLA
UniProt P70288: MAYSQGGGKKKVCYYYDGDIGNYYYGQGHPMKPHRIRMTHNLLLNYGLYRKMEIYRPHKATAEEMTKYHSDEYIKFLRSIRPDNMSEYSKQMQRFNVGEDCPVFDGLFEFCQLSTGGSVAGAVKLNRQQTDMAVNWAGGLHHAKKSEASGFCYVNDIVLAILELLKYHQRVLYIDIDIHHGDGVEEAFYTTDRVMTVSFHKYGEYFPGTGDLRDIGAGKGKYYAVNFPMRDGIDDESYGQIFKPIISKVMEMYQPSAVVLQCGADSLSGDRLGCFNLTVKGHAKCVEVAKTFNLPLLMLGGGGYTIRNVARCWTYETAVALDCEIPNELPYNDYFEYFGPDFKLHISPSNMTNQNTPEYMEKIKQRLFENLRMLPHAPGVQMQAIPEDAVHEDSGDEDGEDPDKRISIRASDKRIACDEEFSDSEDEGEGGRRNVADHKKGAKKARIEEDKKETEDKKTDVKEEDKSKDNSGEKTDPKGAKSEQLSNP

T1: Sin3a (mouse (endogenous in E10.5 embryos, P19 cells and ES cells)) (UniProt Q60520)
T1 sequence: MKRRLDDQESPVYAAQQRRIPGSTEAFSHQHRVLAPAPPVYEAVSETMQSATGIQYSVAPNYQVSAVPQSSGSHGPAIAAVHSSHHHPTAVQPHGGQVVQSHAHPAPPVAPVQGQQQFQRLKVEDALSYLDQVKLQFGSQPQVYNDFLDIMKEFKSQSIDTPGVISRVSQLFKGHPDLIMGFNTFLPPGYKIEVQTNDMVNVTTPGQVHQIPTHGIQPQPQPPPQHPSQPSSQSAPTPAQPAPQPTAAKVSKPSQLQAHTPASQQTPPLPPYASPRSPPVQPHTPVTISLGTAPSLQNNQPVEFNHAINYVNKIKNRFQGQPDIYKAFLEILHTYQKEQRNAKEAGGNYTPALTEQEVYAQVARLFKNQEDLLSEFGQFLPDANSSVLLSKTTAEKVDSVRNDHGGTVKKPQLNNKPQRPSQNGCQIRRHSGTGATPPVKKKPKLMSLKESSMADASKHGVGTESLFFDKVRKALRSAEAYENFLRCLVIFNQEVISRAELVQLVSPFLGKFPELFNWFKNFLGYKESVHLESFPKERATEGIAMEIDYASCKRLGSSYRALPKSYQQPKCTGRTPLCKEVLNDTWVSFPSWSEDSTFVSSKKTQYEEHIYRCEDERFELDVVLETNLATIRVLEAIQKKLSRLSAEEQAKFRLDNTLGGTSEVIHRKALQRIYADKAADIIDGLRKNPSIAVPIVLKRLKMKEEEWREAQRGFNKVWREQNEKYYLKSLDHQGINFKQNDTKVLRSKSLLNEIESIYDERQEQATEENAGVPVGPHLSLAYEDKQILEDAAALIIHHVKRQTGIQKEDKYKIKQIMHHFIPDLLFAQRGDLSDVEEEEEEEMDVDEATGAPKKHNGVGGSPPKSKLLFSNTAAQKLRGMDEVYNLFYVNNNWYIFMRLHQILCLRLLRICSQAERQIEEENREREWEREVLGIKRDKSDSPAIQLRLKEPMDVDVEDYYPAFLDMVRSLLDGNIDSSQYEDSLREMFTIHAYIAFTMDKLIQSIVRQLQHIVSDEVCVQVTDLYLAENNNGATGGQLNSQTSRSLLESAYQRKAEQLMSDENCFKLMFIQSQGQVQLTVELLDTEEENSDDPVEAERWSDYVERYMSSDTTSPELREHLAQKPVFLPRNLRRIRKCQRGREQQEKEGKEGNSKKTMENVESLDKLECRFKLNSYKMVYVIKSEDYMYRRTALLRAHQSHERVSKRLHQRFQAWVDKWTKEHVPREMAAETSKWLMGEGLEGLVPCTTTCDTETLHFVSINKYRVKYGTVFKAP

T2: Fam60a (mouse (endogenous in E10.5 embryos and P19 cells)) (UniProt Q8C8M1)
T2 sequence: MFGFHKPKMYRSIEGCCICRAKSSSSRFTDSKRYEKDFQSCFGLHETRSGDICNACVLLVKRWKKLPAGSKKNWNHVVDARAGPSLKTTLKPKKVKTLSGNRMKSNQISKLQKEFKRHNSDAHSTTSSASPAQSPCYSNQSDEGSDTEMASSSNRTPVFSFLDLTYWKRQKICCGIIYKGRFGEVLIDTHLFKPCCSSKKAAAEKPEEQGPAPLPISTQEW

T3: Fam60a-Venus fusion protein (mouse) (UniProt Q8C8M1)
T3 sequence: T2 sequence

B1: Sin3a (protein, UniProt Q60520 1-1274)
chain: T1 sequence
B2: Ing2 (protein, UniProt Q9ESK4 1-281)
chain: MLGQQQQQQLYSSAALLTGERSRLLSCYVQDYLECVESLPHDMQRNVSVLRELDNKYQETLKEIDDVYEKYKKEDDSNQKKRLQQHLQRALINSQELGDEKIQIVTQMLELVENRARQMELHSQCFQDPAESERASDKSKMDSSQPERSSRRPRRQRTSESRDLCHMTNGIDDCDDQPPKEKRSKSAKKKKRSKAKQEREASPVEFAIDPNEPTYCLCNQVSYGEMIGCDNEQCPIEWFHFSCVSLTYKPKGKWYCPKCRGDNEKTMDKSTEKTKKERRAR

Tests used:
[1] = molecular target: T1, Sin3a (mouse (endogenous in E10.5 embryos, P19 cells and ES cells)); test: co-IP; nuclear extracts of Fam60a flox/– and Fam60a –/– ES cells precipitated with antibodies to Sin3a; silver staining and immunoblot
[2] = molecular target: T2, Fam60a (mouse (endogenous in E10.5 embryos and P19 cells)); test: co-IP; nuclear extracts (RIPA buffer) of undifferentiated P19 cells precipitated with bead-coupled anti-Fam60a; immunoblot for Sin3a, Hdac1, Hdac2
[3] = molecular target: T2, Fam60a (mouse (endogenous in E10.5 embryos and P19 cells)); test: co-IP; nuclear extracts (RIPA buffer) of E10.5 WT embryos precipitated with bead-coupled anti-Fam60a, or of E10.5 Fam60a::Venus embryos with anti-GFP; control rabbit IgG; immunoblot for Sin3a, Hdac1, Hdac2
[4] = molecular target: T3, Fam60a-Venus fusion protein (mouse); test: as above
[5] = molecular target: T3, Fam60a-Venus fusion protein (mouse); test: co-IP; nuclear extracts of E10.5 Fam60a-Venus transgenic embryos prepared with RIPA buffer or buffer C, precipitated with antibodies to GFP or control IgG; immunoblot for Ing2

Molecule	binding [1]	binding [2]	binding [3]	binding [4]	binding [5]
Hdac1 (from UniProt O09106 1-482) (enzyme)	binds	binds	binds	binds	
Hdac2 (from UniProt P70288 1-488) (enzyme)	binds				
B1		binds	binds	binds	
B2					binds
